Among the data in article PMC6971923 are binding values, retold here.

No constants are given. Whether binding was seen depends on the method and setting. Binding seen in cells or lysates may run through a third protein. A result given as binding can be weak or reduced; the word gives no strength.

This test addresses C-terminal GFP-tagged version of full-length Dg (dystroglycan) (Drosophila). The experiment in a line: co-IP; Dg::GFP captured on GFP-Trap beads from whole lysates of about 1-week-old flies in RIPA buffer (1.3 mg supernatant); western blot with anti-Laminin (LanB2), anti-Hts or anti-Kibra. (In general: In western blotting, separated proteins are transferred to a membrane and probed.)

B1: Hts/Add (Hu li tai shao/Adducin) (protein, UniProt Q02645 1-1156)
chain: MTEVEQPPQNGIDPTAGEDDDNSKARPADIEQDMREMERRKRVEAIMGSKLFREELERIVDSARDGGAGASGILQQLSDIVGVPVSRVGSVFKSSNCMVPINDIRGVESMGYAKGEKILRCKLAATFRLLDLYGWTQGLGAQITARLKVDQEYFLVNPYGLLYHEITASALNKVDMQGQIVEQGTTNFGGNKSHFVLHSVVHAARPDIRCAIYIGCSPVVAISSLKTGLLPLTKDACVLGEITTHAYTGLFDEEERNRLVRSLGPNSKVILLTNHGALCCGETIEEAFFAACHIVQACETQLKLLPVGLDNLVLIPEESRKAIYEQSRRPPEDLEKKFAAVAAAEDGAATAEKDAAEAVPKVGSPPKWRVGGAEFEALMRMLDNAGYRTGYIYRHPLIKSDPPKPKNDVELPPAVSSLGYLLEEEELFRQGIWKKGDIRKGGDRSRWLNSPNVYQKVEVLETGTPDPKKITKWVAEGSPTHSTPVRIEDPLQFVPAGTNPREFKRVQQLIKDNRRADKISAGPQSHILEGVTWDEASRLKDATVSQAGDHVVMMGAASKGIIQRGFQHNATVYKAPYAKNPFDNVTDDELNEYKRTVERKKKSVHGEYTDTDFSESEAVLQAGTKKYPQSEPETEHQVIEIQTQQAPVPRQAEVVLSDALVSQLAQKYAFLYSPGQYMYACMKMAPLMHKVYVIHKVEPVSKHNYPPVNDGNMSIHHNESGAGFMAQESSVISSTPVRNALASVSLPEERNHSILGLSSTPYRTISHFGFNCPLITSPTILLHPEHRSIWQRVAEQREKVVSFIDLTTLSLDNRKLLNVVTSTHPTQCQSQSQSFISEKHIQLEVTPPKRKQRVYSATISSGLDDSLDELDSLMSGLAINMPRSREQDSGLYRSYTFLPSNHALPKDTDANNRDQTDRERPEAEQEESFHCAGDSGIGDSTGRRPRLATTSNDSSIQEAEAYTQGKHVKLTLSSSPTPTATQSPATIEILINVSLRNAECVQTVQTHEQEFRAKLERVIDEEIHYISQQLAFKQRQAELHEQQTTSRAPIATPSFTTMHPPAPASSSSMVHRSNSAPELCHTYSYVAVGDLSTKQDQASPQLPAEGEPLNDILSSLEKELERLLNSVVTAHMLHNKAIIHECRARFSQLADGIVSS
For the molecule B1, the binding result is reported as “binds”.

B2: Kibra (Kbr), Drosophila (protein, UniProt Q9VFG8 1-1288)
chain: MPNLQQTASQSQHHLHPHHLRPQQQQQQHHHHHQQQQQQQHTHHQQQQQHHSDFPLPDGWDIAKDFDGKTYYIDHINKKTTWLDPRDCYTKPQTFEDCVGDELPMGWEESYDPNIGPYYINHLAQSTQLEDPRQEWKTVQEQMLSDYLSAAQDQLENKREMFDVKQQRLLWAQEEYNHLKLAASRSSLCSSSSSMSRHDPELLRADLMLARERVHQLKQELTHITNDISYTERGMNTLYSVGEKINARENGCYDIAEVHAIREEMLKVHKSLVSGEKVREELMRSLVQIKNELGRQQISEENSDLASPFDRVCVASQTDLCGSSGENLNGGARFAEMAKTKWQYAEWRKHIKKLQQQLADHVERIEPGQLESDKDRILLIQEKEKLLNDLNSISLKSRSEEEKRVIHQTRHKLEEDLKEAYEANNTCVANRLRFHEEKQLLLDKLQEALKSTKLLEERLKSFSSESTFSISSGSSLGSLSTASSKSALSFTDIYIDPFAVDSPIDVVDLRRRSQRLFQQHQQQRLHPVHPVLQQQQSAEVTLSPRSSLSMETPPASPMKYNAGADQTPQALKEEPTYANALPAPPAYTAPPPVPISGVRARPYDLDSTVLDCMMLEAKLQKLNMGTPLNLAVAPLSPISEKPSLLDLPQEMLSRSSSTSNTRSVSAAVSNESVAGDSGVFEASRAHLPRKELAQVQIGLKYLKQEGVLVVSLERANNLLALWTASADNSQVYLRAALLPNSLTSIRTKALGDFQKPVFNDTFAVPITLDKLLTKSLQVTVVTMTGQKEEIIGTVQISMAEFNPEDSTLKWYNVLSSKFIPSFESLDIPSTSAAAAAAAVAASNAPNPGNNREESSDESTITSSQTSTLTRNQAPCMELQEQMAAELLGLGPLNEPECSDDDDDDEEEELDDKQLVSDVGLMNSSSMLHAYLQNMKQEFADKETNTDRAYLPEKSRGQSQLMDDRPVKRSQTFTPSEAFSKNRYNCRLNRSDSDSAMHCGVAPHTFQRGAAERRSLRFHSKAPKSVTKLHHTHIPRTSLDLELDLQAQHSKLYFLNDQIAKLQNLKEVLQKACENKDPLVAAWAIENEEFQRLVARADPAKCPEERQLQKLLMKTAKEIHKLRKTKVPKGCPDLVSFKEKITFFTRKGLSVPELPSEFTLPEANPIEEEEEEEDENEFYNSAETAIAINTALVASSNRNKNLSEHPHRATSGAVPKIPAPVVTPAATPAATPAATPAATSAATPAATPVVSPAAQPDAKPADAPIPVASNDAEQQRFDYVVDRNYGVEV
With B2, the binding result is given as “binds”.
